Results are given in words; binding and its absence hold for the method and conditions named. For some assays here: Binding seen in cells or lysates may run through a third protein. Some entries that bind do so weakly or less than the wild type.
T1: D1SP (human) (UniProt Q9Y4D7)
T1 sequence: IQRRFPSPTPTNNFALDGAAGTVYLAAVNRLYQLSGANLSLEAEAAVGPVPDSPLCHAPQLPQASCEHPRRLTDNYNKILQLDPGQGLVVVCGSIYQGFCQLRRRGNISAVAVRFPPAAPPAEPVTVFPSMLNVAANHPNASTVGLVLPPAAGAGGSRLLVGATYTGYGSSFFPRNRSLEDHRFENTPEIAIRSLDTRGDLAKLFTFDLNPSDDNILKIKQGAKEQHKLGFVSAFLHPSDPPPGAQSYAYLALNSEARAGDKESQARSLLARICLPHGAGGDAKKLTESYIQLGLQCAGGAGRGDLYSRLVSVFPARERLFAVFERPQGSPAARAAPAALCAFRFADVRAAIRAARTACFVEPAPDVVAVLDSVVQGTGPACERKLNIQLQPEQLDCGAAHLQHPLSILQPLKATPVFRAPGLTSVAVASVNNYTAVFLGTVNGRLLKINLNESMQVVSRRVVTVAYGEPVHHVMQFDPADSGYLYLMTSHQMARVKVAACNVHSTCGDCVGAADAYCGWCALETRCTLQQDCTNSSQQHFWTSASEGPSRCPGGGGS

Protein sequences, listed by entry. Tags and fused reporters are not part of them. Residues count along the entry.
UniProt P21860, residues 20-1342: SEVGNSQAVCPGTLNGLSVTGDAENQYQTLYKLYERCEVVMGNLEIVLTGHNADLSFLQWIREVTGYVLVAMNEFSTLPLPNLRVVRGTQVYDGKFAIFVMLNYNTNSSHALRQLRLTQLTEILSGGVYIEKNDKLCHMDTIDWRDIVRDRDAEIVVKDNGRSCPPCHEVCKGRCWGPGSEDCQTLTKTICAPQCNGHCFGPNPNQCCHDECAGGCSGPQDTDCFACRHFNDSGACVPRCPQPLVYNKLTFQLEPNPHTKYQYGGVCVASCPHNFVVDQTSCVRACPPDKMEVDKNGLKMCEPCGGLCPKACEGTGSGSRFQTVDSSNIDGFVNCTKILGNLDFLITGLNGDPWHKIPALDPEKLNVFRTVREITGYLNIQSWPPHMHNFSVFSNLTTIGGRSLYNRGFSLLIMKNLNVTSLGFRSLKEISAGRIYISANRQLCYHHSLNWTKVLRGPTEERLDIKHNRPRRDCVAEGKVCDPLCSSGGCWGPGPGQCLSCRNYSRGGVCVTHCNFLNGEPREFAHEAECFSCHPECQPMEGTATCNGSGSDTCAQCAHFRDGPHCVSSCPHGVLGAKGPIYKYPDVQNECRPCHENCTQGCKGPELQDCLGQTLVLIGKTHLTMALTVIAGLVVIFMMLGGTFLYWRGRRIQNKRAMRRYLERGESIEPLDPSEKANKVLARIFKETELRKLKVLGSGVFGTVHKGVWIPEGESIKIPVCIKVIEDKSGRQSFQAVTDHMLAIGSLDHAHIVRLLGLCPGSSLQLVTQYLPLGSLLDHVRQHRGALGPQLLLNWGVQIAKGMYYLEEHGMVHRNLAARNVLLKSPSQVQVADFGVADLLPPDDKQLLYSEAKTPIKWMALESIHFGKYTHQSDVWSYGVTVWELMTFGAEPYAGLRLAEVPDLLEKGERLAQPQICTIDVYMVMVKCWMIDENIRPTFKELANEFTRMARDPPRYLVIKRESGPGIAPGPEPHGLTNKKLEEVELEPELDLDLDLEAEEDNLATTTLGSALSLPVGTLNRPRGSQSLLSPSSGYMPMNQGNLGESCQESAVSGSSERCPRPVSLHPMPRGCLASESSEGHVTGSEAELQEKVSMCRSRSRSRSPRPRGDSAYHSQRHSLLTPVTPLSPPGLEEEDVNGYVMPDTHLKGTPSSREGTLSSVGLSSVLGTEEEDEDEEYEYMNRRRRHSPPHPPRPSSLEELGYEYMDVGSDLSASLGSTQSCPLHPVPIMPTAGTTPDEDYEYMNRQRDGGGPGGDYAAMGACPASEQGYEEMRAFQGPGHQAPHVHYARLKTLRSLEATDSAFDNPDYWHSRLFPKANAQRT
UniProt P08581, residues 25-1390: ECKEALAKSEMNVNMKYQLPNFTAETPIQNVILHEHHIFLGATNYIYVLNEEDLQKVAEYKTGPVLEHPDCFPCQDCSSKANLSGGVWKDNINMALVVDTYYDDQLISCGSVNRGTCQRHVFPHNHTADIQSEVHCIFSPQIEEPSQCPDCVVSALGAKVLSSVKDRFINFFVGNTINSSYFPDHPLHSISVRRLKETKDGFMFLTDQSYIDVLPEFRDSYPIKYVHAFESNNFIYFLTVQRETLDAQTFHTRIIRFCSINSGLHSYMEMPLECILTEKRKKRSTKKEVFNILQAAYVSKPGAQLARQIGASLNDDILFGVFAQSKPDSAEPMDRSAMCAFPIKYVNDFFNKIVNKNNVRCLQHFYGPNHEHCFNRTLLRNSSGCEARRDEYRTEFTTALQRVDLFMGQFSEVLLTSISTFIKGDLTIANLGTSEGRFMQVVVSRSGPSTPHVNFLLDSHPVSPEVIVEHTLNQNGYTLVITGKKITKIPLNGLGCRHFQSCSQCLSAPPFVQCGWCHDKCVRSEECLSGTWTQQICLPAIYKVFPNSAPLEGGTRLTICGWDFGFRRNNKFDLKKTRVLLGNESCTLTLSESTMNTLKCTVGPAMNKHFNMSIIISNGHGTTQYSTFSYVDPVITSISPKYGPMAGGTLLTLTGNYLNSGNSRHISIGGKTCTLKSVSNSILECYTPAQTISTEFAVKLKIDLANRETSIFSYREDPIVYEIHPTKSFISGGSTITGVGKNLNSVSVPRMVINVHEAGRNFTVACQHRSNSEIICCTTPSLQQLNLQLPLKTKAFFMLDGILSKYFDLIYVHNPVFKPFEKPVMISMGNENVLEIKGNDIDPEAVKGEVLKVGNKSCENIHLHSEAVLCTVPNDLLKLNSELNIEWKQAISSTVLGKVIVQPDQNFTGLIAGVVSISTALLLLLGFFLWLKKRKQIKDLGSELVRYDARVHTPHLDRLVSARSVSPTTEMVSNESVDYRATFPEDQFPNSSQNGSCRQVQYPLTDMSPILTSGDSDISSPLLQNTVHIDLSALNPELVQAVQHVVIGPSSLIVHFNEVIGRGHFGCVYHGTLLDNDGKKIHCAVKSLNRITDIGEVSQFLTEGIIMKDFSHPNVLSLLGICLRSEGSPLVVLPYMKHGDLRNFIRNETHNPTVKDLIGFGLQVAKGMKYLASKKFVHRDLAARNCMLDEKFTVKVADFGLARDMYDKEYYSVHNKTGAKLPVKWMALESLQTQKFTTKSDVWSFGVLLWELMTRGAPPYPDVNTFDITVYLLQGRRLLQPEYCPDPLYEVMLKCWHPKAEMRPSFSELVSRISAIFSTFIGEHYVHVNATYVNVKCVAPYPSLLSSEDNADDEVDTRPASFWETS

B1: Sema3E (ligand, UniProt O15041 26-775)
chain: ADTTHPRLRLSHKELLNLNRTSIFHSPFGFLDLHTMLLDEYQERLFVGGRDLVYSLSLERISDGYKEIHWPSTALKMEECIMKGKDAGECANYVRVLHHYNRTHLLTCGTGAFDPVCAFIRVGYHLEDPLFHLESPRSERGRGRCPFDPSSSFISTLIGSELFAGLYSDYWSRDAAIFRSMGRLAHIRTEHDDERLLKEPKFVGSYMIPDNEDRDDNKVYFFFTEKALEAENNAHAIYTRVGRLCVNDVGGQRILVNKWSTFLKARLVCSVPGMNGIDTYFDELEDVFLLPTRDHKNPVIFGLFNTTSNIFRGHAICVYHMSSIRAAFNGPYAHKEGPEYHWSVYEGKVPYPRPGSCASKVNGGRYGTTKDYPDDAIRFARSHPLMYQAIKPAHKKPILVKTDGKYNLKQIAVDRVEAEDGQYDVLFIGTDNGIVLKVITIYNQEMESMEEVILEELQIFKDPVPIISMEISSKRQQLYIGSASAVAQVRFHHCDMYGSACADCCLARDPYCAWDGISCSRYYPTGTHAKRRFRRQDVRHGNAAQQCFGQQFVGDALDKTEEHLAYGIENNSTLLECTPRSLQAKVIWFVQKGRETRKEEVKTDDRVVKMDLGLLFLRLHKSDAGTYFCQTVEHSFVHTVRKITLEVVEEEKVEDMFNKDDEEDRHHRMPCPAQSSISQGAKPWYKEFLQLIGYSNFQRVEEYCEKVWCTDRKRKKLKMSPSKWKYANPQEKKLRSKPEHYRLPRHTLDS
B2: Recombinant human PlexinD1 protein (receptor, UniProt Q9Y4D7 47-1271)
chain: LEIQRRFPSPTPTNNFALDGAAGTVYLAAVNRLYQLSGANLSLEAEAAVGPVPDSPLCHAPQLPQASCEHPRRLTDNYNKILQLDPGQGLVVVCGSIYQGFCQLRRRGNISAVAVRFPPAAPPAEPVTVFPSMLNVAANHPNASTVGLVLPPAAGAGGSRLLVGATYTGYGSSFFPRNRSLEDHRFENTPEIAIRSLDTRGDLAKLFTFDLNPSDDNILKIKQGAKEQHKLGFVSAFLHPSDPPPGAQSYAYLALNSEARAGDKESQARSLLARICLPHGAGGDAKKLTESYIQLGLQCAGGAGRGDLYSRLVSVFPARERLFAVFERPQGSPAARAAPAALCAFRFADVRAAIRAARTACFVEPAPDVVAVLDSVVQGTGPACERKLNIQLQPEQLDCGAAHLQHPLSILQPLKATPVFRAPGLTSVAVASVNNYTAVFLGTVNGRLLKINLNESMQVVSRRVVTVAYGEPVHHVMQFDPADSGYLYLMTSHQMARVKVAACNVHSTCGDCVGAADAYCGWCALETRCTLQQDCTNSSQQHFWTSASEGPSRCPAMTVLPSEIDVRQEYPGMILQISGSLPSLSGMEMACDYGNNIRTVARVPGPAFGHQIAYCNLLPRDQFPPFPPNQDHVTVEMSVRVNGRNIVKANFTIYDCSRTAQVYPHTACTSCLSAQWPCFWCSQQHSCVSNQSRCEASPNPTSPQDCPRTLLSPLAPVPTGGSQNILVPLANTAFFQGAALECSFGLEEIFEAVWVNESVVRCDQVVLHTTRKSQVFPLSLQLKGRPARFLDSPEPMTVMVYNCAMGSPDCSQCLGREDLGHLCMWSDGCRLRGPLQPMAGTCPAPEIHAIEPLSGPLDGGTLLTIRGRNLGRRLSDVAHGVWIGGVACEPLPDRYTVSEEIVCVTGPAPGPLSGVVTVNASKEGKSRDRFSYVLPLVHSLEPTMGPKAGGTRITIHGNDLHVGSELQVLVNDTDPCTELMRTDTSIACTMPEGALPAPVPVCVRFERRGCVHGNLTFWYMQNPVITAISPRRSPVSGGRTITVAGERFHMVQNVSMAVHHIGREPTLCKVLNSTLITCPSPGALSNASAPVDFFINGRAYADEVAVAEELLDPEEAQRGSRFRLDYLPNPQFSTAKREKWIKHHPGEPLTLVIHKEQDSLGLQSHEYRVKIGQVSCDIQIVSDRIIHCSVNESLGAAVGQLPITIQVGNFNQTIATLQLGGSETA
B3: Recombinant human Sema3C protein (ligand, UniProt Q99985 21-751)
chain: GSSQPQARVYLTFDELRETKTSEYFSLSHHPLDYRILLMDEDQDRIYVGSKDHILSLNINNISQEALSVFWPASTIKVEECKMAGKDPTHGCGNFVRVIQTFNRTHLYVCGSGAFSPVCTYLNRGRRSEDQVFMIDSKCESGKGRCSFNPNVNTVSVMINEELFSGMYIDFMGTDAAIFRSLTKRNAVRTDQHNSKWLSEPMFVDAHVIPDGTDPNDAKVYFFFKEKLTDNNRSTKQIHSMIARICPNDTGGLRSLVNKWTTFLKARLVCSVTDEDGPETHFDELEDVFLLETDNPRTTLVYGIFTTSSSVFKGSAVCVYHLSDIQTVFNGPFAHKEGPNHQLISYQGRIPYPRPGTCPGGAFTPNMRTTKEFPDDVVTFIRNHPLMYNSIYPIHKRPLIVRIGTDYKYTKIAVDRVNAADGRYHVLFLGTDRGTVQKVVVLPTNNSVSGELILEELEVFKNHAPITTMKISSKKQQLYVSSNEGVSQVSLHRCHIYGTACADCCLARDPYCAWDGHSCSRFYPTGKRRSRRQDVRHGNPLTQCRGFNLKAYRNAAEIVQYGVKNNTTFLECAPKSPQASIKWLLQKDKDRRKEVKLNERIIATSQGLLIRSVQGSDQGLYHCIATENSFKQTIAKINFKVLDSEMVAVVTDKWSPWTWASSVRALPFHPKDIMGAFSHSEMQMINQYCKDTRQQHQQGDESQKMRGDYGKLKALINSRKSRNRRNQLPES
B4: Recombinant human Sema3E protein (ligand, UniProt O15041 26-775)
chain: B1 chain

Columns and labels:
[1] = molecular target: PlexinD1 (human (endogenous in LNCaP, C4-2B^ENZR, 22Rv1)) (UniProt Q9Y4D7); assay: co-IP; 22Rv1 lysate (1 mg total protein), PlexinD1 antibody or control IgG at 4 C overnight, Protein G magnetic beads, blots for PlexinD1, ErbB3, cMet
[2] = molecular target: PlexinD1 (human (endogenous in LNCaP, C4-2B^ENZR, 22Rv1)) (UniProt Q9Y4D7); assay: proximity ligation; endogenous proteins in fixed 22Rv1 (and C4-2B^ENZR) cells treated with D1SP (1 uM, 2 h) or PBS as vehicle; Duolink In Situ Red kit; cytoplasmic fluorescence per cell
[3] = molecular target: PlexinD1 (human (endogenous in LNCaP, C4-2B^ENZR, 22Rv1)) (UniProt Q9Y4D7); assay: proximity ligation; endogenous proteins in fixed cells (LNCaP and C4-2B^ENZR); pairs of primary antibodies, Duolink In Situ Red kit; cytoplasmic fluorescence per cell; for PlexinD1-ErbB3/cMet C4-2B^ENZR cells also treated with recombinant Sema3E/Sema3C (200-500 ng/ml, 4 h) or SEMA3E/SEMA3C siRNA (10 uM, 48 h)
[4] = molecular target: PlexinD1 (human (endogenous in LNCaP, C4-2B^ENZR, 22Rv1)) (UniProt Q9Y4D7); assay: as above; remark: listed apart in the source
[5] = molecular target: PlexinD1 (human (endogenous in LNCaP, C4-2B^ENZR, 22Rv1)) (UniProt Q9Y4D7); assay: proximity ligation; endogenous proteins in fixed 22Rv1 (and C4-2B^ENZR) cells treated with D1SP (1 uM, 2 h) or PBS as vehicle; Duolink In Situ Red kit; cytoplasmic fluorescence per cell; remark: listed apart in the source
[6] = molecular target: T1, D1SP (human); assay: co-IP; 10 ug of recombinant PlexinD1, Sema3C or Sema3E with 10 ug D1SP in IP buffer, 4 C, 4 h; Fc-antibody bound beads; blots for PlexinD1, Sema3C or Sema3E; both purified

binding [1] | binding [2] | binding [3] | binding [6] | other results | Molecule
binds | binds | binds | – | – | ErbB3 (from UniProt P21860 20-1342) (receptor)
binds | binds | binds | – | – | cMet (from UniProt P08581 25-1390) (receptor)
– | – | – | – | binding [4]: binds; binding [5]: binds | B1
– | – | – | binds | – | B2
– | – | – | binds | – | B3
– | – | – | binds | – | B4

Source: publication PMC11822115
